Measurements reported in patent US4806540A, “1-heteroaryl-4-aryl-pyrazole microbicides” (Bayer Aktiengesellschaft, priority 1985, dated 1989).
At least one compound was matched to its structure with a doubt left.

Tested on: Pyricularia oryzae
Format: in vivo, Pyricularia oryzae (on young rice plants)
Settings: protective, rice plants; evaluation 4 days after inoculation

With CS(=O)(=O)n1cc(-c2ccccc2)c(=O)n1-c1ccccn1 [Example 24, 1-pyrid-2-yl-2-methylsulphonyl-4-phenyl-pyrazolin-5-one] the “activity compared with the prior art” value was “clearly superior activity compared with the prior art”.
